Laboratory results reported in the supplement of paper PMC11546906.
Counter-ions that a name gives are not always drawn. Some of the results follow. Repeats in this data set agree poorly, so a single value says little.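 FDA-approved drugs were each paired with colistin at one-eighth its MIC and screened against a multidrug-resistant, mcr-1-positive clinical E. coli isolate, with OD600 read after 24 h. Drug-free bacteria served as growth control, plain broth as blank. Combinations were active if OD600 dropped below 0.2.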

Test system: Escherichia coli 42 (mcr-1-positive clinical isolate)
Test: OD600 after 24 h growth with compound plus colistin (absorbance units (OD600)); higher = more bacterial growth (less inhibition)
Details: first compound 25 µM; colistin concentration 0.5 ug/mL; incubation time 24 h; 37 °C

SMILES	OD600
CN(C)CCCN1c2ccccc2Sc2ccc(Cl)cc21 [Chlorpromazine hydrochloride] + CCC(C)CCCC(=O)N[C@@H](CCN)C(=O)N[C@H](C(=O)N[C@@H](CCN)C(=O)N[C@H]1CCNC(=O)[C@H]([C@@H](C)O)NC(=O)[C@H](CCN)NC(=O)[C@H](CCN)NC(=O)[C@H](CC(C)C)NC(=O)[C@@H](CC(C)C)NC(=O)[C@H](CCN)NC1=O)[C@@H](C)O [colistin]	inactive: 0.887
CN1CCN2c3ncccc3Cc3ccccc3C2C1 (stereo not given) [Mirtazapine] + CCC(C)CCCC(=O)N[C@@H](CCN)C(=O)N[C@H](C(=O)N[C@@H](CCN)C(=O)N[C@H]1CCNC(=O)[C@H]([C@@H](C)O)NC(=O)[C@H](CCN)NC(=O)[C@H](CCN)NC(=O)[C@H](CC(C)C)NC(=O)[C@@H](CC(C)C)NC(=O)[C@H](CCN)NC1=O)[C@@H](C)O [colistin]	inactive: 1.09
CCC(=O)O[C@]1(C(=O)SCF)[C@H](C)C[C@H]2[C@@H]3C[C@H](F)C4=CC(=O)C=C[C@]4(C)[C@@]3(F)[C@@H](O)C[C@@]21C [Fluticasone (propionate)] + CCC(C)CCCC(=O)N[C@@H](CCN)C(=O)N[C@H](C(=O)N[C@@H](CCN)C(=O)N[C@H]1CCNC(=O)[C@H]([C@@H](C)O)NC(=O)[C@H](CCN)NC(=O)[C@H](CCN)NC(=O)[C@H](CC(C)C)NC(=O)[C@@H](CC(C)C)NC(=O)[C@H](CCN)NC1=O)[C@@H](C)O [colistin]	inactive: 1.01
COc1ccc2[nH]c([S@@+]([O-])Cc3ncc(C)c(OC)c3C)nc2c1 [Esomeprazole Sodium] + CCC(C)CCCC(=O)N[C@@H](CCN)C(=O)N[C@H](C(=O)N[C@@H](CCN)C(=O)N[C@H]1CCNC(=O)[C@H]([C@@H](C)O)NC(=O)[C@H](CCN)NC(=O)[C@H](CCN)NC(=O)[C@H](CC(C)C)NC(=O)[C@@H](CC(C)C)NC(=O)[C@H](CCN)NC1=O)[C@@H](C)O [colistin]	inactive: 1.09
NC12CC3CC(CC(C3)C1)C2 [Amantadine hydrochloride] + CCC(C)CCCC(=O)N[C@@H](CCN)C(=O)N[C@H](C(=O)N[C@@H](CCN)C(=O)N[C@H]1CCNC(=O)[C@H]([C@@H](C)O)NC(=O)[C@H](CCN)NC(=O)[C@H](CCN)NC(=O)[C@H](CC(C)C)NC(=O)[C@@H](CC(C)C)NC(=O)[C@H](CCN)NC1=O)[C@@H](C)O [colistin]	inactive: 0.742
CN(C)C(=O)C(CCN1CCC(O)(c2ccc(Cl)cc2)CC1)(c1ccccc1)c1ccccc1 [Loperamide hydrochloride] + CCC(C)CCCC(=O)N[C@@H](CCN)C(=O)N[C@H](C(=O)N[C@@H](CCN)C(=O)N[C@H]1CCNC(=O)[C@H]([C@@H](C)O)NC(=O)[C@H](CCN)NC(=O)[C@H](CCN)NC(=O)[C@H](CC(C)C)NC(=O)[C@@H](CC(C)C)NC(=O)[C@H](CCN)NC1=O)[C@@H](C)O [colistin]	inactive: 0.981
C[C@@H](O)[C@H]1C(=O)N2C(C(=O)O)=C(S[C@@H]3CN[C@H](CNS(N)(=O)=O)C3)[C@H](C)[C@H]12 [Doripenem monohydrate] + CCC(C)CCCC(=O)N[C@@H](CCN)C(=O)N[C@H](C(=O)N[C@@H](CCN)C(=O)N[C@H]1CCNC(=O)[C@H]([C@@H](C)O)NC(=O)[C@H](CCN)NC(=O)[C@H](CCN)NC(=O)[C@H](CC(C)C)NC(=O)[C@@H](CC(C)C)NC(=O)[C@H](CCN)NC1=O)[C@@H](C)O [colistin]	inactive: 0.831
CCCCC(=O)O[C@]1(C(=O)CO)[C@@H](C)C[C@H]2[C@@H]3CCC4=CC(=O)C=C[C@]4(C)[C@@]3(F)[C@@H](O)C[C@@]21C [Betamethasone valerate] + CCC(C)CCCC(=O)N[C@@H](CCN)C(=O)N[C@H](C(=O)N[C@@H](CCN)C(=O)N[C@H]1CCNC(=O)[C@H]([C@@H](C)O)NC(=O)[C@H](CCN)NC(=O)[C@H](CCN)NC(=O)[C@H](CC(C)C)NC(=O)[C@@H](CC(C)C)NC(=O)[C@H](CCN)NC1=O)[C@@H](C)O [colistin]	inactive: 0.857
NC(=O)OCC(COC(N)=O)c1ccccc1 [Felbamate] + CCC(C)CCCC(=O)N[C@@H](CCN)C(=O)N[C@H](C(=O)N[C@@H](CCN)C(=O)N[C@H]1CCNC(=O)[C@H]([C@@H](C)O)NC(=O)[C@H](CCN)NC(=O)[C@H](CCN)NC(=O)[C@H](CC(C)C)NC(=O)[C@@H](CC(C)C)NC(=O)[C@H](CCN)NC1=O)[C@@H](C)O [colistin]	inactive: 0.95
Cc1cn(-c2cc(NC(=O)c3ccc(C)c(Nc4nccc(-c5cccnc5)n4)c3)cc(C(F)(F)F)c2)cn1 [Nilotinib] + CCC(C)CCCC(=O)N[C@@H](CCN)C(=O)N[C@H](C(=O)N[C@@H](CCN)C(=O)N[C@H]1CCNC(=O)[C@H]([C@@H](C)O)NC(=O)[C@H](CCN)NC(=O)[C@H](CCN)NC(=O)[C@H](CC(C)C)NC(=O)[C@@H](CC(C)C)NC(=O)[C@H](CCN)NC1=O)[C@@H](C)O [colistin]	inactive: 1.03
CO[C@H]1/C=C/O[C@@]2(C)Oc3c(C)c(O)c4c(O)c(c5c(nc6cc(C)ccn65)c4c3C2=O)NC(=O)/C(C)=C\C=C\[C@H](C)[C@H](O)[C@@H](C)[C@@H](O)[C@@H](C)[C@H](OC(C)=O)[C@@H]1C [Rifaximin] + CCC(C)CCCC(=O)N[C@@H](CCN)C(=O)N[C@H](C(=O)N[C@@H](CCN)C(=O)N[C@H]1CCNC(=O)[C@H]([C@@H](C)O)NC(=O)[C@H](CCN)NC(=O)[C@H](CCN)NC(=O)[C@H](CC(C)C)NC(=O)[C@@H](CC(C)C)NC(=O)[C@H](CCN)NC1=O)[C@@H](C)O [colistin]	active: 0.05
Nc1ccc(S(=O)(=O)NC(=O)c2ccccc2)cc1 [Sulfabenzamide] + CCC(C)CCCC(=O)N[C@@H](CCN)C(=O)N[C@H](C(=O)N[C@@H](CCN)C(=O)N[C@H]1CCNC(=O)[C@H]([C@@H](C)O)NC(=O)[C@H](CCN)NC(=O)[C@H](CCN)NC(=O)[C@H](CC(C)C)NC(=O)[C@@H](CC(C)C)NC(=O)[C@H](CCN)NC1=O)[C@@H](C)O [colistin]	inactive: 0.9
C[C@]12C=CC(=O)C=C1CC[C@@H]1[C@@H]2[C@@H](O)C[C@@]2(C)[C@H]1CC[C@]2(O)C(=O)CO [Prednisolone] + CCC(C)CCCC(=O)N[C@@H](CCN)C(=O)N[C@H](C(=O)N[C@@H](CCN)C(=O)N[C@H]1CCNC(=O)[C@H]([C@@H](C)O)NC(=O)[C@H](CCN)NC(=O)[C@H](CCN)NC(=O)[C@H](CC(C)C)NC(=O)[C@@H](CC(C)C)NC(=O)[C@H](CCN)NC1=O)[C@@H](C)O [colistin]	inactive: 0.96
C[C@]1(Cn2ccnn2)[C@H](C(=O)O)N2C(=O)C[C@H]2S1(=O)=O [Tazobactam] + CCC(C)CCCC(=O)N[C@@H](CCN)C(=O)N[C@H](C(=O)N[C@@H](CCN)C(=O)N[C@H]1CCNC(=O)[C@H]([C@@H](C)O)NC(=O)[C@H](CCN)NC(=O)[C@H](CCN)NC(=O)[C@H](CC(C)C)NC(=O)[C@@H](CC(C)C)NC(=O)[C@H](CCN)NC1=O)[C@@H](C)O [colistin]	inactive: 1.03
CCNC(=O)CCC/C=C\C[C@@H]1[C@@H](/C=C/[C@@H](O)CCc2ccccc2)[C@H](O)C[C@@H]1O [Bimatoprost] + CCC(C)CCCC(=O)N[C@@H](CCN)C(=O)N[C@H](C(=O)N[C@@H](CCN)C(=O)N[C@H]1CCNC(=O)[C@H]([C@@H](C)O)NC(=O)[C@H](CCN)NC(=O)[C@H](CCN)NC(=O)[C@H](CC(C)C)NC(=O)[C@@H](CC(C)C)NC(=O)[C@H](CCN)NC1=O)[C@@H](C)O [colistin]	inactive: 0.941
CS(=O)(=O)c1ccc(C2=C(c3ccccc3)C(=O)OC2)cc1 [Rofecoxib] + CCC(C)CCCC(=O)N[C@@H](CCN)C(=O)N[C@H](C(=O)N[C@@H](CCN)C(=O)N[C@H]1CCNC(=O)[C@H]([C@@H](C)O)NC(=O)[C@H](CCN)NC(=O)[C@H](CCN)NC(=O)[C@H](CC(C)C)NC(=O)[C@@H](CC(C)C)NC(=O)[C@H](CCN)NC1=O)[C@@H](C)O [colistin]	inactive: 1.05
CC(=O)OCC(CCn1cnc2cnc(N)nc21)COC(C)=O [Famciclovir] + CCC(C)CCCC(=O)N[C@@H](CCN)C(=O)N[C@H](C(=O)N[C@@H](CCN)C(=O)N[C@H]1CCNC(=O)[C@H]([C@@H](C)O)NC(=O)[C@H](CCN)NC(=O)[C@H](CCN)NC(=O)[C@H](CC(C)C)NC(=O)[C@@H](CC(C)C)NC(=O)[C@H](CCN)NC1=O)[C@@H](C)O [colistin]	inactive: 0.927
Cn1ccnc1S [Methimazole] + CCC(C)CCCC(=O)N[C@@H](CCN)C(=O)N[C@H](C(=O)N[C@@H](CCN)C(=O)N[C@H]1CCNC(=O)[C@H]([C@@H](C)O)NC(=O)[C@H](CCN)NC(=O)[C@H](CCN)NC(=O)[C@H](CC(C)C)NC(=O)[C@@H](CC(C)C)NC(=O)[C@H](CCN)NC1=O)[C@@H](C)O [colistin]	inactive: 1.09
COc1ccc(CN(CCN(C)C)c2ccccn2)cc1 [Mepyramine maleate] + CCC(C)CCCC(=O)N[C@@H](CCN)C(=O)N[C@H](C(=O)N[C@@H](CCN)C(=O)N[C@H]1CCNC(=O)[C@H]([C@@H](C)O)NC(=O)[C@H](CCN)NC(=O)[C@H](CCN)NC(=O)[C@H](CC(C)C)NC(=O)[C@@H](CC(C)C)NC(=O)[C@H](CCN)NC1=O)[C@@H](C)O [colistin]	inactive: 1.11
CC(C)(S)[C@@H](N)C(=O)O [Penicillamine] + CCC(C)CCCC(=O)N[C@@H](CCN)C(=O)N[C@H](C(=O)N[C@@H](CCN)C(=O)N[C@H]1CCNC(=O)[C@H]([C@@H](C)O)NC(=O)[C@H](CCN)NC(=O)[C@H](CCN)NC(=O)[C@H](CC(C)C)NC(=O)[C@@H](CC(C)C)NC(=O)[C@H](CCN)NC1=O)[C@@H](C)O [colistin]	inactive: 1.01

Some values from the results shown:
OD600, NC12CC3CC(CC(C3)C1)C2 [Amantadine hydrochloride] + CCC(C)CCCC(=O)N[C@@H](CCN)C(=O)N[C@H](C(=O)N[C@@H](CCN)C(=O)N[C@H]1CCNC(=O)[C@H]([C@@H](C)O)NC(=O)[C@H](CCN)NC(=O)[C@H](CCN)NC(=O)[C@H](CC(C)C)NC(=O)[C@@H](CC(C)C)NC(=O)[C@H](CCN)NC1=O)[C@@H](C)O [colistin] is entered as inactive: 0.742
OD600, CCNC(=O)CCC/C=C\C[C@@H]1[C@@H](/C=C/[C@@H](O)CCc2ccccc2)[C@H](O)C[C@@H]1O [Bimatoprost] + CCC(C)CCCC(=O)N[C@@H](CCN)C(=O)N[C@H](C(=O)N[C@@H](CCN)C(=O)N[C@H]1CCNC(=O)[C@H]([C@@H](C)O)NC(=O)[C@H](CCN)NC(=O)[C@H](CCN)NC(=O)[C@H](CC(C)C)NC(=O)[C@@H](CC(C)C)NC(=O)[C@H](CCN)NC1=O)[C@@H](C)O [colistin] is entered as inactive: 0.941
